These results are taken from publication PMC5385220.

Amino acid sequences for entries named in this document (tags omitted).
UniProt Q13526: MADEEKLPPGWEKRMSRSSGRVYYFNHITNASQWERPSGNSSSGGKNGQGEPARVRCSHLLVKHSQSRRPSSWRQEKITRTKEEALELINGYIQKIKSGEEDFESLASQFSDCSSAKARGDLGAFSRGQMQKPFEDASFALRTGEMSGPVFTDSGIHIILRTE
UniProt Q9BYB0: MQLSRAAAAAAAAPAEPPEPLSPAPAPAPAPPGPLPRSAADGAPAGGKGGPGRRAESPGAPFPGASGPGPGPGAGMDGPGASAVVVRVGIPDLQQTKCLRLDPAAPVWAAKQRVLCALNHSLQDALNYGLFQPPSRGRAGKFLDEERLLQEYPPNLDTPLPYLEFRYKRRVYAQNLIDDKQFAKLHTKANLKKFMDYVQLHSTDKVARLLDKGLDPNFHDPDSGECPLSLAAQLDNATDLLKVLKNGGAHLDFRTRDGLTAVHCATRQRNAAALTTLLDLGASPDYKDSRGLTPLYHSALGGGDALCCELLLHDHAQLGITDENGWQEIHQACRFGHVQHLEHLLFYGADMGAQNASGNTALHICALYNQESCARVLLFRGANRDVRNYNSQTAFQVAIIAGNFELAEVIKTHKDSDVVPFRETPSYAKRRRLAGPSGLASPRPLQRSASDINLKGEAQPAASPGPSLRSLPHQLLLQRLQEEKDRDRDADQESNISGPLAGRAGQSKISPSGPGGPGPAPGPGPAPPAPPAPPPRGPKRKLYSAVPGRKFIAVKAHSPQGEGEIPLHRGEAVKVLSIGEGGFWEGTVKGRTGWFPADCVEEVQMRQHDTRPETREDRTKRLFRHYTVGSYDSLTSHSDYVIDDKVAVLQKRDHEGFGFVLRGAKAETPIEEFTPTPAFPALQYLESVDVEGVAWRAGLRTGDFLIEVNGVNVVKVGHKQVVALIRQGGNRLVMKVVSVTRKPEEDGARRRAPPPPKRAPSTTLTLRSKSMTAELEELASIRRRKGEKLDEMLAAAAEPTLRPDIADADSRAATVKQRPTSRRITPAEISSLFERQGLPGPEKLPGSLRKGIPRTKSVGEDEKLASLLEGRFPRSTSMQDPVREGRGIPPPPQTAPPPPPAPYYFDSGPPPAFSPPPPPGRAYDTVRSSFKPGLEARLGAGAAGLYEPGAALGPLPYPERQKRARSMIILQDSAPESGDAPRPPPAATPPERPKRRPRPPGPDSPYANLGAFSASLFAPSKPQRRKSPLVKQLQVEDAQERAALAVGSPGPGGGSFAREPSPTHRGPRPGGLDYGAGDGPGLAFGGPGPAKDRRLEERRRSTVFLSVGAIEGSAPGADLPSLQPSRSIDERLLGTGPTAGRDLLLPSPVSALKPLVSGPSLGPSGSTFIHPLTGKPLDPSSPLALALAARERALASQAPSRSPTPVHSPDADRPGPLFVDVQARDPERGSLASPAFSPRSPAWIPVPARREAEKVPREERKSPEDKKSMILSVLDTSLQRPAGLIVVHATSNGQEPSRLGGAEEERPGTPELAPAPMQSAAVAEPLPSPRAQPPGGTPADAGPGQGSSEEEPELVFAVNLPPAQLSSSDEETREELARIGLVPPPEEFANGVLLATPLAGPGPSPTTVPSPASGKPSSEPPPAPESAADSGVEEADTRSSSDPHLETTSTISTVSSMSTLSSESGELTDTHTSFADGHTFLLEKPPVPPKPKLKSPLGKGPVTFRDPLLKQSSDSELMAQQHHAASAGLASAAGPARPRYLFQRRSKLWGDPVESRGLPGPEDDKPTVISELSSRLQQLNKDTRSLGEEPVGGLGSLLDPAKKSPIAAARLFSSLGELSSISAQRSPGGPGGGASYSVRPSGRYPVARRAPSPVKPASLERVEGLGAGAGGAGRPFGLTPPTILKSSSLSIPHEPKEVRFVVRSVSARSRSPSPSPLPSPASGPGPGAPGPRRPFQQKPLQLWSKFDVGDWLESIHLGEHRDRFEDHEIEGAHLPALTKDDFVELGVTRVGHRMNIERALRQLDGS

Results are given in words; binding and its absence hold for the method and conditions named. In cells and extracts the contact can be indirect. Some entries that bind do so weakly or less than the wild type.

The test deals with Peptidyl-prolyl cis-trans isomerase NIMA-interacting 1 (human (endogenous in frontal cortical tissue)) (UniProt Q13526). Briefly: co-IP; synaptosomes (200 ug protein) of human control brain cortical tissue solubilised in 50 mM Tris pH 7.5, 100 mM NaCl, 1.5 mM EGTA, 0.1% SDS, 1% Triton X-100; 100,000g supernatant incubated with rabbit anti-Pin1 or anti-Shank3 plus Protein G agarose at 4°C overnight; rabbit IgG as negative control; Western blot. In general terms: Immunoblotting shows a protein as a band on a membrane.

For the substance “Shank3 protein (from UniProt Q9BYB0 1-1806)”, the binding result is “binds”.
